Patent US4933323A, “Novel peptide and salts thereof and peptide antiallergic agents containing these peptides” (Hitachi Chemical Co., Ltd., priority 1988, dated 1990)
At least one peptide structure holds a part that was inferred or is arguable (an end, a ring closure or a residue). Residues, ends and D or L forms follow the SMILES beside them.

Columns and labels:
IgE antibody production = test: Inhibitory activity on IgE antibody production in mice, antibody titer by rat 48 hr PCA reaction (Test Example 2); format: in vivo, BALB/c mice
[1] = Characteristic physical properties of the peptide; format: physicochemical
[2] = test system: intraperitoneal mast cells of passively sensitized rats; test: Inhibitory activity on histamine release from mast cells (Test Example 1); format: cell-based, Wistar rats

NCCCC[C@H](NC(=O)CNC(=O)[C@H](CC(=O)O)NC(=O)[C@H](CO)NC(=O)[C@@H](N)CC(=O)O)C(=O)O [the present compound, Asp-Ser-Asp-Gly-Lys] (H-DSDGK-OH)
IgE antibody production (antibody titer by PCA reaction) (IgE antibody production; Test 2-1 (FIG. 4): 1 mg and 10 mg i.p. 30 min before DNP-BSA, serum on 14th day): strongly inhibited IgE antibody production | IgE antibody production (antibody titer by PCA reaction) (IgE antibody production; Test 2-2 (FIG. 5): 1 mg and 10 mg i.p. on 13th day after DNP-BSA, re-immunized next day, serum on 14th day of the immunization): strongly inhibited IgE antibody production | Hydrophobity (H.phi.) [1]: 1.86 | Isoelectric point [1]: 3.7 | activity in inhibition of histamine release relative to the pentapeptide of IgE antibody origin (Asp-Ser-Asp-Pro-Arg) ([2]; comparison stated in the summary): activity higher than that of the pentapeptide of IgE antibody origin | potency of histamine release inhibition relative to DSCG ([2]; comparison with DSCG, FIG. 3): approximately equal to or higher than that of DSCG | inhibitory action on histamine release (ratio of histamine release, FIG. 3) ([2]; concentration 10^-6 M, eggwhite albumin antigen plus phosphatidyl-L-serine challenge): exerted an inhibitory action on histamine release
